Measured values from publication doi:10.1101/2024.02.07.579305.
These are yes or no findings as the source states them, for the method shown. Binding seen in cells or lysates may run through a third protein. Binding can be weak; no strength is given. Tags and fused reporters may be left off the sequences shown.

Target: T1, HA-tagged RACK7 (wild type) (UniProt Q9ULU4)
T1 sequence: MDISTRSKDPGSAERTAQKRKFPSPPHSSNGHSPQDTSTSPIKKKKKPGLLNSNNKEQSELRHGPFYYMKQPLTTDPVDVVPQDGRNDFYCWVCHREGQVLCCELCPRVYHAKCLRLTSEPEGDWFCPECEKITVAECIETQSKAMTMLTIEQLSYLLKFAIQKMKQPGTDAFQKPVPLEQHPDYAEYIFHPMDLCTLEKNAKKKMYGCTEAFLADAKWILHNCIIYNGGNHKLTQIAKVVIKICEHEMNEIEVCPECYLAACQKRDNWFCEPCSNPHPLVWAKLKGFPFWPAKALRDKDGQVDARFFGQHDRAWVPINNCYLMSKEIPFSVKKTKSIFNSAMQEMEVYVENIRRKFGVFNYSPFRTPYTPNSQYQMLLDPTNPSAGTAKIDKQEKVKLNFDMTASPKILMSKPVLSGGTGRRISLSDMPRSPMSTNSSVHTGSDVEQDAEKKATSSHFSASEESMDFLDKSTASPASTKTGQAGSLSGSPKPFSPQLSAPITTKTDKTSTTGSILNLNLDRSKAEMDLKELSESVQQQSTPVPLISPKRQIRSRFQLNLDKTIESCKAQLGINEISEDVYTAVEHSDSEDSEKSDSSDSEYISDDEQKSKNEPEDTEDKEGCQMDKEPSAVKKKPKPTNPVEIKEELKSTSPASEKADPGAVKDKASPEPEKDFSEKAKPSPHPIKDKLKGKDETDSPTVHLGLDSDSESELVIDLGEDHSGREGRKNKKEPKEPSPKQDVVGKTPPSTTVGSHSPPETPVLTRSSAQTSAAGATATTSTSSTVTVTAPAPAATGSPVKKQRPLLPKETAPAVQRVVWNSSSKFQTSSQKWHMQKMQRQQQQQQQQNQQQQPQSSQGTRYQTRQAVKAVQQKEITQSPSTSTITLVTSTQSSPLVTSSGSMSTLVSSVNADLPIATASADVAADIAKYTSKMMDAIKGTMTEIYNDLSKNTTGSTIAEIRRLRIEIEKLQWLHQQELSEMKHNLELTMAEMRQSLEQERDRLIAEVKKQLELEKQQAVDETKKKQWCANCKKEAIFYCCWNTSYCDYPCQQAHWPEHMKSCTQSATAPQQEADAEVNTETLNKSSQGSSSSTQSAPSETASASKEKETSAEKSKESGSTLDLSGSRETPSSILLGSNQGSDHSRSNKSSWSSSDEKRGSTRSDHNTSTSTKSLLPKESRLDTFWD
Experiment: co-IP

binding	Substance
binds	endogenous INTS10
binds	endogenous INTS15
